Over roughly 3,200 compounds, “TSA(without NAD+) / Primary screening (TSA) / delta Tm (K)” has its median near -0.07; the highest 2% begin near 0.37. The list shows a part of the results.
molecular target: NAD-dependent deacetylase Sirtuin 1 (human, UniProt Q96EB6); test: primary screen, delta tm; set-up: single well (n = 1); conditions: 10 µM
Procedure, shortened: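 Thermal shift of Sirtuin 1 measured without NAD+, compound at 10 µM (n = 1); value is ΔTm, with hits defined as ΔTm > 0.45 K or < −1.5 K. Hits retested at 5, 10, 20 µM (n = 4) and counterscreened on bovine carbonic anhydrase and ABL1 SH2 domain.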

The chains behind the UniProt entries cited, without tags or fusion partners. Residues count along the entry.
UniProt Q96EB6, 2-747 limits assumed: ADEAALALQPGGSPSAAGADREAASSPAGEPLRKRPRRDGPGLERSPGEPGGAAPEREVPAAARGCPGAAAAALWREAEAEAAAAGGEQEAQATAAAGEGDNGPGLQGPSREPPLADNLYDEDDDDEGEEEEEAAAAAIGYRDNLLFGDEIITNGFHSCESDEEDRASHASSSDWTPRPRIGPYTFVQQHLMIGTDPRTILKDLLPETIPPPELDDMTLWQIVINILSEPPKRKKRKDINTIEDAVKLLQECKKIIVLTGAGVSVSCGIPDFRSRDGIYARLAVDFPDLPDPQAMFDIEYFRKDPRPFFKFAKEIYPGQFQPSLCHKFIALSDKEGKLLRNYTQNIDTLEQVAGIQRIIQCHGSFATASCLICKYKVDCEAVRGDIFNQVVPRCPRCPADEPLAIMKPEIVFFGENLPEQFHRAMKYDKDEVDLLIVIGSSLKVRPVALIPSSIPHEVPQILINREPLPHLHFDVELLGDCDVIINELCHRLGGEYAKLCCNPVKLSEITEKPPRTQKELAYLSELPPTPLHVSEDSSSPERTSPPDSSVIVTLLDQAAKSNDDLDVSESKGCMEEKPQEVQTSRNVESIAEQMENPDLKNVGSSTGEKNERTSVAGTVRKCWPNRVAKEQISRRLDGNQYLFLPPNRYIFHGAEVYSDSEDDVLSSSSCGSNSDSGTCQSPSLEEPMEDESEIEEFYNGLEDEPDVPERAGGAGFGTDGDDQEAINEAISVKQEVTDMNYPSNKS

| SMILES | TSA(without NAD+) / Primary screening (TSA) / delta Tm (K) |
| --- | --- |
| O=C1NC(=S)NC(=O)C1=NNc1cccc(OC(F)F)c1 | 0.09 |
| Cc1ccc(OCc2nnc(SCc3ccccc3)n2N)c(C)c1 | -0.02 |
| NC(=O)N(Cc1ccccc1)Cc1ccccc1 | 0.05 |
| COc1ccc(C(=O)C2=C(O)C(=O)N(CCN3CCOCC3)C2c2ccc(Cl)cc2)c(O)c1 (stereo not shown) | -0.01 |
| CN(c1cccc(Cl)c1)S(=O)(=O)c1cccc(C(=O)Nc2sccc2C(N)=O)c1 | 0.18 |
| CC(OC(=O)Cc1c[nH]c2ccccc12)C(=O)Nc1ccc(C(N)=O)cc1 (stereo not shown) | 0.18 |
| c1nc(N2CCN(Cc3csc(-c4ccsc4)n3)CC2)c2c3c(sc2n1)CCCC3 | -0.08 |
| COc1ccc(N(C)S(=O)(=O)c2cccc(C(=O)Nc3cccc(Br)c3)c2)cc1 | 0.38 |
| O=C1NC(=O)C(c2ccccc2)(C(F)(F)F)N1 (stereo not shown) | -0.12 |
| COc1ccc(CCSc2nc3ccsc3c(=O)n2C)cc1 | -0.04 |
| COc1ccc(-c2noc(CN3CCN(c4ncnc5scc(-c6ccccc6)c45)CC3)n2)cc1 | -0.02 |
| O=C1CCC(=O)N(c2ccc(C(=O)NC34CC5CC(CC(C5)C3)C4)cc2)N1 | 0.17 |
| CN(c1cccnc1)S(=O)(=O)c1cccc(-n2cnnn2)c1 | 0.02 |
| Cc1ccc(C23CC4CC(CC(C(=O)OCC(=O)Nc5ccc(S(N)(=O)=O)cc5)(C4)C2)C3)cc1 | 0.32 |
| COc1ccc(S(=O)(=O)N2CCOCC2)cc1NC(=O)c1ccccc1SCC(=O)NC12CC3CC(CC(C3)C1)C2 | 0.02 |
| Cc1cc(C)cc(C(=O)Nc2cccc(S(=O)(=O)N3CCCCCC3)c2)c1 | 0.12 |
| CN(Cc1nc2ccccc2s1)C(=O)CSc1nnc(C2COc3ccccc3O2)o1 (stereo not shown) | -0.12 |
| CN(C)C(=O)CCNc1ncnc2ccsc12 | -0.32 |
| O=C(Cn1cnc2sc3c(c2c1=O)CCCCC3)N1CCc2ccccc21 | -0.27 |
| O=C(Nc1ccc2c(c1)OC1(CCCC1)O2)c1cc(O)nc2ccccc12 | 0.07 |
| N#C/C(=C\c1[nH]c2ccccc2c1Cl)C(N)=O | -0.13 |
| NC(=S)c1ccc(C(=O)NC2CCCc3cc(OC(F)F)ccc32)cc1 (stereo not shown) | 0.06 |
| CC(C)Cn1c(SC(C)C(=O)Nc2sc3c(c2C(N)=O)CCC3)nnc1N1CCOCC1 (stereo not shown) | -0.08 |
| CC(NC(=O)c1ccc2c(c1)C(=O)c1ccccc1-2)C1CC2CCC1C2 (stereo not shown) | 0.18 |
| CCNC(=O)CSc1nnc(-c2c[nH]c3ccccc23)n1Cc1ccco1 | 0.05 |
| NC(=O)Cn1nc(-n2cncn2)ccc1=O | -0.17 |
| O=C(CCc1c[nH]c2ccccc12)Nc1ccc2nc[nH]c(=O)c2c1 | 0.26 |
| COc1ccc(N(C)S(=O)(=O)c2cccc(C(=O)Nc3ccccc3-c3ccccc3)c2)cc1 | 0.06 |

| SMILES | TSA(without NAD+) / Primary screening (TSA) / delta Tm (K) |
| --- | --- |
| CCOC(=O)C(C)N (stereo not shown) | -0.24 |
| Cc1cc(=O)oc2cc(OCC(=O)N3CCc4ccccc4C3)ccc12 | 0.03 |
| Cc1ccc(C(=O)Nc2ccc(NC(=O)NCC3CCCO3)cc2)cn1 (stereo not shown) | 0.52 |
| O=C1/C(=C/c2ccc(Br)cc2)Oc2cc(O)ccc21 | 0.36 |
| COc1cc(CN(C)C(=O)c2cccc(S(=O)(=O)N3CCCC3)c2)ccc1OCc1ccccc1 | -0.12 |
| COc1cccc(/C=C2/COc3ccc(Br)cc3C2=O)c1OC(F)F | -0.08 |
| O=C(Cc1c[nH]c2ccccc12)Nc1ccc(N2CCN(Cc3ccccc3)CC2)cc1 | -0.04 |
| CCc1ccc(OCC(=O)NNC(=O)Cc2ccc(OC)cc2)cc1 | 0.07 |
| CN(c1ccccc1)S(=O)(=O)c1ccc(C(=O)Nc2cccc(S(=O)(=O)N3CCOCC3)c2)cc1 | 0.02 |
| CN1CCN(CCc2cccc(NC(=O)C3CC3c3ccc4ccccc4c3)c2)CC1 (stereo not shown) | 0.16 |
| COc1ccc(N2CCN(c3ncnc4sc5c(c34)CCC5)CC2)cc1 | -0.13 |
| c1ccc(-c2nc(CSc3nnc(NCc4ccco4)s3)cs2)nc1 | 0.27 |
| CNC1CCc2[nH]c3ccc(Cl)cc3c2C1 (stereo not shown) | -0.15 |
| CC(=O)NC1CCCN(c2c(C)c(C)nc3ccccc23)C1 (stereo not shown) | -0.28 |
| CCc1ccc(CNC(=O)Nc2ccncc2C)cc1 | -0.38 |
| COc1cc(NC(C)C(=O)Nc2ccc(C(N)=O)cc2)cc(OC)c1OC (stereo not shown) | -0.18 |
| CCN(CC)CCNC(=O)c1ccc(NC(=O)CC2CCCC2)cc1 | 0.07 |
| O=C(CCc1ccccc1)NC1CCN(c2ccc([N+](=O)[O-])c3cccnc23)CC1 | -0.28 |
| CC(C)Cn1c(SCC(=O)Nc2sc3c(c2C(N)=O)CCC3)nnc1N1CCOCC1 | -0.02 |
| CCOc1ccc(C2C(C(=O)c3ccc(F)cc3)=C(O)C(=O)N2CCCN2CCOCC2)cc1OC (stereo not shown) | -0.12 |
| CCOc1ccc(-n2c(SCC(=O)c3[nH]c(C)c(C(C)=O)c3C)nc3ccccc3c2=O)cc1 | -0.03 |
| COc1ccc(NC(=O)c2cccc(OCc3c(C)noc3C)c2)cc1OCc1cn2ccccc2n1 | 0.08 |
| Cc1ccc(Nc2nnc(SCC(=O)Nc3cc(C)c(C)cc3[N+](=O)[O-])s2)cc1 | -0.03 |
| COC(C)C(O)C(=O)O (stereo not shown) | -0.13 |
| COc1ccc2c(C=C3C(=O)NC(=O)NC3=O)cccc2c1 | -0.37 |
| O=C(Oc1ccccc1Cc1ccccc1)c1ccc2c(c1)S(=O)(=O)c1ccccc1C2=O | 0.02 |
| Cc1nc(CN2CCN(CC(=O)N(C)Cc3cccs3)CC2)no1 | -0.12 |

Fetched by compound from the entries so far, two records:

| SMILES | TSA(without NAD+) / Primary screening (TSA) / delta Tm (K) |
| --- | --- |
| O=C(Cc1c[nH]c2ccccc12)Nc1ccc(N2CCN(Cc3ccccc3)CC2)cc1 | -0.04 |
| COc1cc(CN(C)C(=O)c2cccc(S(=O)(=O)N3CCCC3)c2)ccc1OCc1ccccc1 | -0.12 |

Source: paper PMC6925144, “A prospective compound screening contest identified broader inhibitors for Sirtuin 1” (Scientific Reports, 2019)
